From the supplement of paper PMC12823440, “Inhibitors supercharge kinase turnover through native proteolytic circuits” (Nature, 2025)
Some of the results follow. The calls rarely recur for the same compound in another form.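 Kinases, fused to nanoluciferase, were expressed in K562 cells; luminescence was measured every 4 h from 2 to 18 h as percent of control (DMSO = 100%, positive control = 0%). A time point is decreased if signal falls significantly (2 sigma). Hits were called by the authors by a rule that is not shown; the count of time points alone does not decide it.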

Chains of the proteins cited; added tags and fusions are not shown. Lines headed by an entry give the natural chain unless they say otherwise; changes in a name come on top.
UniProt Q8IWU2: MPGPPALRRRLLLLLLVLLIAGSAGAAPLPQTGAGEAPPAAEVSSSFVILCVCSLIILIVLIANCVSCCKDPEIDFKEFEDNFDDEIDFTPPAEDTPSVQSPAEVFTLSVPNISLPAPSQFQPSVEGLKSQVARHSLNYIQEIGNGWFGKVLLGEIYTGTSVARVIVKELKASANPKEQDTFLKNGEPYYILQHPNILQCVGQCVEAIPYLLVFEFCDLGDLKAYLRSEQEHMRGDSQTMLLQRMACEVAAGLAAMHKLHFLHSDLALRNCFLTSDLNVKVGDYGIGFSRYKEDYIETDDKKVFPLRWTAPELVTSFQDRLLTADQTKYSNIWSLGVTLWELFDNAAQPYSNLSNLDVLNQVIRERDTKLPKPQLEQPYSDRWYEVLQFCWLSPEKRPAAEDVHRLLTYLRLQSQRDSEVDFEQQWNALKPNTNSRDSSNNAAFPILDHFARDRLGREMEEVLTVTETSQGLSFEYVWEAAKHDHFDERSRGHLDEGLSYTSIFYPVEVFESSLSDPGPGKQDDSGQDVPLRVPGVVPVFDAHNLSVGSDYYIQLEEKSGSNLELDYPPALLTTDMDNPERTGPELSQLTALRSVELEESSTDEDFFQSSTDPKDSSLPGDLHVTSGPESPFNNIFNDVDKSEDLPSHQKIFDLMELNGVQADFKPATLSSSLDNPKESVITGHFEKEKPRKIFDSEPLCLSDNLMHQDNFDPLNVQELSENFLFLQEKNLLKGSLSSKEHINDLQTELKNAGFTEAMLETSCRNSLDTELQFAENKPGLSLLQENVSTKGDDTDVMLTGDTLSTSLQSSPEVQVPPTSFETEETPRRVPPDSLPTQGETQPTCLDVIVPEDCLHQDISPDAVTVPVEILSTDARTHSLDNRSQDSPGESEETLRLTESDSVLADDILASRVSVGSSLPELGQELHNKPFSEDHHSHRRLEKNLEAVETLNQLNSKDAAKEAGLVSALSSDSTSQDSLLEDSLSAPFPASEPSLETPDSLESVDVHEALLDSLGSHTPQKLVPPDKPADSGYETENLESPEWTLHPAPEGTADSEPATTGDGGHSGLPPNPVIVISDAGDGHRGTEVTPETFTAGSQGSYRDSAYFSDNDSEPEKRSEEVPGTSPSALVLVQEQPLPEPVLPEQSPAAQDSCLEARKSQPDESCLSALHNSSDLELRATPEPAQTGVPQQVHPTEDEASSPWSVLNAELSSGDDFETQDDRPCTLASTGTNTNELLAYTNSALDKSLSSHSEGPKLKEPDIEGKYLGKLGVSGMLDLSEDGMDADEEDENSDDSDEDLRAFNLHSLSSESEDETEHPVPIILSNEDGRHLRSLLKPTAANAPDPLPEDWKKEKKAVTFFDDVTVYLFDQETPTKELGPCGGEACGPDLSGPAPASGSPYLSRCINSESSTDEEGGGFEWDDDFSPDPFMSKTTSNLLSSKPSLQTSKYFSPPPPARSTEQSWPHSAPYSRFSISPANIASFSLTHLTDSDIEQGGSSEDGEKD
UniProt P07948: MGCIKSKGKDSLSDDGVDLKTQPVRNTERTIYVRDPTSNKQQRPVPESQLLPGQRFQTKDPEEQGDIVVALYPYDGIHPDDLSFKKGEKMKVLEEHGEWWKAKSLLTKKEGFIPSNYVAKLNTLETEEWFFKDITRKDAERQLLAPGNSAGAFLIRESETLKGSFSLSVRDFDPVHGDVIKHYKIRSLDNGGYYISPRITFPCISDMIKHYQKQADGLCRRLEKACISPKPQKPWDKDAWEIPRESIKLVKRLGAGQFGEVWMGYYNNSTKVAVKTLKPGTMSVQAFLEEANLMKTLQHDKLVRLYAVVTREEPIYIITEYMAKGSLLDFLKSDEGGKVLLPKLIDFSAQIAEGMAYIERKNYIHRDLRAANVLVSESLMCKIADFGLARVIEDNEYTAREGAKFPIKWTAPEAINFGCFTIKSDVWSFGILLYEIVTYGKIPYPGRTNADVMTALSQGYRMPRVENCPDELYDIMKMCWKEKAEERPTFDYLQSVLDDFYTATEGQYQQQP
UniProt Q9BUB5: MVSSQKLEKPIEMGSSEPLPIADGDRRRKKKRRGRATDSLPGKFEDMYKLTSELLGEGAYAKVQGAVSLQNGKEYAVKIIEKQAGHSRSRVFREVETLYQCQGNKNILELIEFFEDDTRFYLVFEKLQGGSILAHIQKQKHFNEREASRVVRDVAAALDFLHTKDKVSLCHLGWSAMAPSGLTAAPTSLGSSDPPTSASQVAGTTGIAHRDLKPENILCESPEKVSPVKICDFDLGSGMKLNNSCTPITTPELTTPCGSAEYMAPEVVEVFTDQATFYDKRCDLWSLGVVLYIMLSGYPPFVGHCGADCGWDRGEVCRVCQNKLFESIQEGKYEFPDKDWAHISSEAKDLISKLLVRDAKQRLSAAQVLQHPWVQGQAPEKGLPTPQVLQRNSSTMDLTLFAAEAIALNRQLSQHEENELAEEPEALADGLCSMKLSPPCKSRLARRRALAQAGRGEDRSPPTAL
UniProt Q96KB5: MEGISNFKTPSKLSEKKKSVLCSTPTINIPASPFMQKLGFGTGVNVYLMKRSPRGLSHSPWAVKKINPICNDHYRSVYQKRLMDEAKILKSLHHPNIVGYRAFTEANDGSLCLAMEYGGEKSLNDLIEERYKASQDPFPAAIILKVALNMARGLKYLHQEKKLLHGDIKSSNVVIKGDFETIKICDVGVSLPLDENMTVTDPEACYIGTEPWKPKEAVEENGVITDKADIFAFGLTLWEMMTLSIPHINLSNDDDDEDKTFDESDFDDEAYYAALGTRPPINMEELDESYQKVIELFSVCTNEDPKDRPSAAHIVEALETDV
UniProt P09619, whole entry: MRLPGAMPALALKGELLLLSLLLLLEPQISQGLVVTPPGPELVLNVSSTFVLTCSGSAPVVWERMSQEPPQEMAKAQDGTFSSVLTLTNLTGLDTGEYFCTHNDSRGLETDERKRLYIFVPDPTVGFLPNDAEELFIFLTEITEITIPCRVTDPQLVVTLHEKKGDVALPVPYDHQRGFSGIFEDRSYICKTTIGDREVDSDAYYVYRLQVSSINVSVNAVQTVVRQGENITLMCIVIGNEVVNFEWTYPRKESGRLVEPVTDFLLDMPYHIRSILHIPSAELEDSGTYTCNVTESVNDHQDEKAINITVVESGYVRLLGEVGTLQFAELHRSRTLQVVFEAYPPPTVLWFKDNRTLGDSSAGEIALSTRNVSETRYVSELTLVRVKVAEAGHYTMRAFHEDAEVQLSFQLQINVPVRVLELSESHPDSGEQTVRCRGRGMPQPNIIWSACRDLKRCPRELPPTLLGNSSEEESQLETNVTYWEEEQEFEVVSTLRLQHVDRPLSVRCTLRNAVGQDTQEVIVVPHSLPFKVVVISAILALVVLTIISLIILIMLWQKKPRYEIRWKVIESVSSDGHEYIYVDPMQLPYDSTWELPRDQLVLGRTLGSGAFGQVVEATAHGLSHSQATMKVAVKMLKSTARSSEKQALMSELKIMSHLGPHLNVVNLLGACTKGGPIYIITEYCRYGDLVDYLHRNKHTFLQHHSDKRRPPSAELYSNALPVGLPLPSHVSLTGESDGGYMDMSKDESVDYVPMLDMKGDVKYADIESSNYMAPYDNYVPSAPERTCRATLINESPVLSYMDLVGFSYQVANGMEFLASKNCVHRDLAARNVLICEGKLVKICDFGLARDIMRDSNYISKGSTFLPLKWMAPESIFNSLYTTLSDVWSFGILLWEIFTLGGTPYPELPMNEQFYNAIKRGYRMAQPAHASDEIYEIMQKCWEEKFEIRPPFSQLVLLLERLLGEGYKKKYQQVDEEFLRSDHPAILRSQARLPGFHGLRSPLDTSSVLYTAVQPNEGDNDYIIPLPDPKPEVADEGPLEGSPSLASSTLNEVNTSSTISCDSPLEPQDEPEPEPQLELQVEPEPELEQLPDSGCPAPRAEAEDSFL
UniProt Q15118, whole entry, looked up: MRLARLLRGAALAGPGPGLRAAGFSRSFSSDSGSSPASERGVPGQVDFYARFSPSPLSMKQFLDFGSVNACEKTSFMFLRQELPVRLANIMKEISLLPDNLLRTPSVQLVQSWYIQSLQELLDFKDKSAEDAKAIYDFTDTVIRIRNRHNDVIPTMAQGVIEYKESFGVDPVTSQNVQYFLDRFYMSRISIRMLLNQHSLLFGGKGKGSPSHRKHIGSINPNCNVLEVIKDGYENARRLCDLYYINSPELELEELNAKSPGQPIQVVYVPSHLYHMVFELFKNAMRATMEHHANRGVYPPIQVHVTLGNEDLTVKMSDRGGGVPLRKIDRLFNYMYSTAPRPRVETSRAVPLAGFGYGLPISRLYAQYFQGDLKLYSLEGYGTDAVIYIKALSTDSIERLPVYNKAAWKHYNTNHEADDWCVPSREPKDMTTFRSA
UniProt P42356, whole entry, looked up: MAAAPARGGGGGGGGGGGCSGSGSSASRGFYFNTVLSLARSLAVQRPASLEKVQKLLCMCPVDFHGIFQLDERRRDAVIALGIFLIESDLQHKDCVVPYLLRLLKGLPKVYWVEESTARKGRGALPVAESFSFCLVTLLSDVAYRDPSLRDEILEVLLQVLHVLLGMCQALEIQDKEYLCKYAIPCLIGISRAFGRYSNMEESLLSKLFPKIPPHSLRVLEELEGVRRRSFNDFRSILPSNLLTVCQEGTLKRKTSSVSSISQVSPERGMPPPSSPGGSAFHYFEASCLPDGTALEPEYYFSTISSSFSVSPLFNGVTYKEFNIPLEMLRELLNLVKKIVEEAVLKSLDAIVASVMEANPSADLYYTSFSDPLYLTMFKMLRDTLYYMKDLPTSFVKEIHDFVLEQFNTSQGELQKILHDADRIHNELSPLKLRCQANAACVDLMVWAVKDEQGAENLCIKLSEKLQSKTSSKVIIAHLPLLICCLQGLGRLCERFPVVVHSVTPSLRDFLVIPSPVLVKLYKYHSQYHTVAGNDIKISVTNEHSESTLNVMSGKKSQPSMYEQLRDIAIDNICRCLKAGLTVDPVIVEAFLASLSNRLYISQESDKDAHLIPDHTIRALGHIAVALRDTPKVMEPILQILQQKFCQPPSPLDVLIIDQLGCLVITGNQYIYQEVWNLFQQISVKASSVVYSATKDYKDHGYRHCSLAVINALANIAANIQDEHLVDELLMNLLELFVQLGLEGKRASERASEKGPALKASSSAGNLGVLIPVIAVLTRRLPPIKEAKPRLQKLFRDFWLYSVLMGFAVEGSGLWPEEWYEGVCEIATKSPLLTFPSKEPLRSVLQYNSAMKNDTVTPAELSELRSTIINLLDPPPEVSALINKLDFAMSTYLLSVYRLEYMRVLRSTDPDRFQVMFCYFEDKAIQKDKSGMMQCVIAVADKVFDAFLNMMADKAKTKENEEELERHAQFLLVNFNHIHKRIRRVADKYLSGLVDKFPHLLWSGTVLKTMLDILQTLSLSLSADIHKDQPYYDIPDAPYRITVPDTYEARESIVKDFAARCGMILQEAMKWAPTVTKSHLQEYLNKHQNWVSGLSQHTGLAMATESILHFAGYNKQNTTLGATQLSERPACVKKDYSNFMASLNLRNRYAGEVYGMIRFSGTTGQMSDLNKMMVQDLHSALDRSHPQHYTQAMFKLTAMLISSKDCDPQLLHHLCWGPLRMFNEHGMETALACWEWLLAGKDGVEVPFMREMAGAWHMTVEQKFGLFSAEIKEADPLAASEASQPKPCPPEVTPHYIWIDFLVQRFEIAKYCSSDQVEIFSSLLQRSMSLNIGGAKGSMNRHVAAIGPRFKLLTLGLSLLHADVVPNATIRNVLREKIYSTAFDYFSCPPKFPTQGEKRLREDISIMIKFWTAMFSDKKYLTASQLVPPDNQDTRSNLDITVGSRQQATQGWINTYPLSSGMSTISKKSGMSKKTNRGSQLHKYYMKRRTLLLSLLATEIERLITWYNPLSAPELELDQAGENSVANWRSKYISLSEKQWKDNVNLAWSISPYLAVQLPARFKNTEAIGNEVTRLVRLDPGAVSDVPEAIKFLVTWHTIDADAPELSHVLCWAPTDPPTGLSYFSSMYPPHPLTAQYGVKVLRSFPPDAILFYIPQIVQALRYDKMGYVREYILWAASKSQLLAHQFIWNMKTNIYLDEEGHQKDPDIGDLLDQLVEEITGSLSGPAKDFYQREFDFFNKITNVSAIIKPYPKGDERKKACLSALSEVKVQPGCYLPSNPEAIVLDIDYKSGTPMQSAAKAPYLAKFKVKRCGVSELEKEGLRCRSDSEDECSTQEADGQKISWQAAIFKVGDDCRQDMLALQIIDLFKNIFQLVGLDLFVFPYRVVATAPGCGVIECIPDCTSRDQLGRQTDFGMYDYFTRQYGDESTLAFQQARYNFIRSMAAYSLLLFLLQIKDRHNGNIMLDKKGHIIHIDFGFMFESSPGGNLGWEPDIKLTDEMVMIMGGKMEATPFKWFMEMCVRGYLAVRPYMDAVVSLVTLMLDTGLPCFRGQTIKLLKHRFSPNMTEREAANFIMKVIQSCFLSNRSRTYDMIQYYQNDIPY

Legend:
Test in all cases: number of time points (of 5) at which kinase-Nluc abundance scored as decreased, DMSO-normalised (count); higher = more persistent destabilization
Conditions in all cases: K562; 2-18 h
LMTK2 = LMTK2 (UniProt Q8IWU2)
LYN = LYN (UniProt P07948)
MAP2K1 = MAP2K1 (UniProt Q02750)
MAP2K2 = MAP2K2 (UniProt P36507)
MAP4K2 = MAP4K2 (UniProt Q12851)
MAPK1 = MAPK1 (UniProt P28482)
MAPK4 = MAPK4 (UniProt P31152)
MAPKAPK2 = MAPKAPK2 (UniProt P49137)
MKNK1 = MKNK1 (UniProt Q9BUB5)
NTRK2 = NTRK2 (UniProt Q16620)
NTRK3 = NTRK3 (UniProt Q16288)
PAK4 = PAK4 (UniProt O96013)
PBK = PBK (UniProt Q96KB5)
PDGFRB = PDGFRB (UniProt P09619)
PDK1 = PDK1 (UniProt Q15118)
PDPK1 = PDPK1 (UniProt O15530)
PIK4CA = PIK4CA (UniProt P42356)
PIK4CB = PIK4CB (UniProt Q9UBF8)
PLK1 = PLK1 (UniProt P53350)
PRKAA1 = PRKAA1 (UniProt Q13131)

SMILES	number of time points (LMTK2)	number of time points (LYN)	number of time points (MAP2K1)	number of time points (MAP2K2)	number of time points (MAP4K2)	number of time points (MAPK1)	number of time points (MAPK4)	number of time points (MAPKAPK2)	number of time points (MKNK1)	number of time points (NTRK2)	number of time points (NTRK3)	number of time points (PAK4)	number of time points (PBK)	number of time points (PDGFRB)	number of time points (PDK1)	number of time points (PDPK1)	number of time points (PIK4CA)	number of time points (PIK4CB)	number of time points (PLK1)	number of time points (PRKAA1)
Cc1cc(Nc2cc3ncccc3c(N[C@@H]3C[C@H]4CC[C@@H](C3)N4CCC#N)n2)n[nH]1 [Izencitinib] (10 µM)	0	0	0	0	0	0	0	0	0	0	0	0	0	0	0	0	0	0	0	0
CC(C)=CC(=O)CCC(=O)N1CCN(Cc2cc3nc(-c4cccc5[nH]ncc45)nc(N4CCOCC4)c3s2)CC1 (10 µM)	0	0	0	0	0	0	0	0	0	0	0	0	0	0	0	0	0	0	0	0
O=C(O)CCc1ccc(O)c(O)c1 [Dihydrocaffeic acid] (10 µM)	0	0	0	0	0	1	0	0	0	0	0	0	0	0	0	0	0	0	0	0
COc1cccc(-n2c(=O)[nH]c3cc(Cl)n(-c4ccc(-c5cccc(OC)c5O)cc4)c3c2=O)c1 (2.5 µM)	1	0	0	0	0	0	0	0	0	0	0	0	0	0	0	0	0	0	0	0
O=C1NC(=O)/C(=C/c2ccc3c(c2)OC(F)(F)O3)S1 (10 µM)	0	0	0	0	0	0	0	0	0	0	0	0	0	0	0	0	0	0	0	0
O=c1oc2cc(O)ccc2c2ccccc12 [Urolithin B] (10 µM)	0	0	0	0	0	0	0	0	0	0	0	0	0	0	0	0	0	0	0	0
CC(=O)c1c(C)c2cnc(Nc3ccc(N4CCN(CCCCNC(=O)COc5cccc6c5C(=O)N(C5CCC(=O)NC5=O)C6=O)CC4)cn3)nc2n(C2CCCC2)c1=O (stereo not given) (10 µM)	0	0	0	0	0	0	0	0	0	0	0	0	0	0	0	0	0	0	0	0
COc1cc(N2CCN(C)CC2)ccc1Nc1ncc2c(n1)N(C1CCC1)C(=O)N(c1c(C)cccc1C)C2 (2.5 µM)	0	0	0	0	0	0	0	0	0	0	0	0	0	0	0	0	0	0	0	0
COc1ccc([C@@H]2CC(=O)c3c(O)cc(O)cc3O2)cc1O [Hesperetin] (10 µM)	0	0	0	0	0	0	0	0	0	0	0	0	0	0	0	0	0	0	0	0
C=C1C(=O)O[C@@H]2C[C@@]3(C)CCC[C@H](C)C3=C[C@H]12 [Alantolactone] (10 µM)	0	0	0	0	0	0	0	0	0	0	0	0	0	0	0	0	0	0	0	0
O=c1cc(O)cc(/C=C/c2ccc(O)c(O)c2)o1 [Hispidin] (10 µM)	0	0	0	0	0	0	0	0	0	0	0	0	0	0	0	0	0	0	0	0
C[C@@H]1C(=O)O[C@H](C)[C@H]1C[C@@H](O)[C@](C)(O)[C@H]1CC[C@@]2(O)C3=CC(=O)[C@@H]4C[C@@H](O)[C@@H](O)C[C@]4(C)[C@H]3CC[C@]12C [Cyasterone] (10 µM)	0	0	0	0	0	0	0	0	0	0	0	0	0	0	0	0	0	0	0	0
COc1cc(N2CCC(N3CCN(C)CC3)CC2)ccc1Nc1ncc(Cl)c(Nc2ccccc2P(C)(C)=O)n1 [Brigatinib] (2 µM)	0	0	0	0	0	0	0	0	0	0	0	0	0	0	0	0	0	0	0	0
Cn1nccc1Nc1nccc(-c2cc3c(s2)C(C)(C)N(CCN2CCOCC2)C3=O)n1 (10 µM)	0	0	0	0	0	0	0	0	0	0	0	0	0	0	0	0	0	0	0	0
C=CC(=O)Nc1cc2c(Nc3ccc(OCc4ccccn4)c(Cl)c3)ncnc2cc1OCCN1CCOCC1 (10 µM)	0	0	0	0	0	0	0	0	0	0	0	0	0	0	0	0	0	0	0	0
N#Cc1c(-c2ccccc2)cc(-c2cc(Br)ccc2O)[nH]c1=O (10 µM)	0	0	0	0	0	0	0	0	0	0	0	0	0	0	0	0	0	0	0	0
CNCc1ccccc1-c1csc([C@@H](C)Nc2nc(C)nc3cc(OC)c(OC)cc23)c1 (2.5 µM)	0	0	0	0	0	0	2	0	0	0	0	0	0	0	0	0	0	0	2	0
Cc1cc([C@H](C)Nc2ccccc2)c2oc(N3CCOCC3)cc(=O)c2c1 (10 µM)	0	0	0	0	0	0	0	0	0	0	0	0	0	0	0	0	0	0	0	0
COc1ccc(C2CC(c3ccccc3)=NN2c2ccc(S(N)(=O)=O)cc2)cc1 (stereo not given) (10 µM)	0	0	0	0	0	0	0	0	0	0	0	0	0	0	0	0	0	0	0	0
C[C@@H]1O[C@@H](O[C@H]2[C@H](Oc3cc(O)c4c(=O)cc(-c5ccc(O)cc5)oc4c3)O[C@H](CO)[C@@H](O)[C@@H]2O)[C@H](O)[C@H](O)[C@H]1O [Rhoifolin] (10 µM)	0	0	0	0	0	0	0	0	0	0	0	0	0	0	0	0	0	0	0	0
C=CC(=O)Nc1ccc(CN(C(=O)Nc2c(Cl)c(OC)cc(OC)c2Cl)c2cc(Nc3ccc(N4CCN(C)CC4)cc3)ncn2)cc1 (10 µM)	0	0	0	0	0	0	0	0	0	0	0	0	0	0	0	0	0	0	0	0
O=C(NCCCNc1nc(Nc2cccc(NC(=O)N3CCCC3)c2)ncc1I)c1cccs1 (2.5 µM)	0	0	0	0	0	0	0	0	0	0	0	0	0	0	0	0	0	0	0	0
Cc1ccc(S(=O)(=O)/C=C/C#N)cc1 (10 µM)	0	0	0	0	0	0	0	0	0	2	0	0	0	0	0	0	0	0	0	0
CCN1CCN(Cc2ccc(Nc3ncc(F)c(-c4cc(F)c5nc(CO)n(C(C)C)c5c4)n3)nc2)CC1 [Abemaciclib metabolite M20] (2 µM)	0	0	0	0	0	0	0	0	0	0	0	0	0	0	0	0	0	0	0	0

Full records as entered above. Order of values: number of time points (LMTK2) | number of time points (LYN) | number of time points (MAP2K1) | number of time points (MAP2K2) | number of time points (MAP4K2) | number of time points (MAPK1) | number of time points (MAPK4) | number of time points (MAPKAPK2) | number of time points (MKNK1) | number of time points (NTRK2) | number of time points (NTRK3) | number of time points (PAK4) | number of time points (PBK) | number of time points (PDGFRB) | number of time points (PDK1) | number of time points (PDPK1) | number of time points (PIK4CA) | number of time points (PIK4CB) | number of time points (PLK1) | number of time points (PRKAA1)
Cc1cc([C@H](C)Nc2ccccc2)c2oc(N3CCOCC3)cc(=O)c2c1 (10 µM) as listed: 0 | 0 | 0 | 0 | 0 | 0 | 0 | 0 | 0 | 0 | 0 | 0 | 0 | 0 | 0 | 0 | 0 | 0 | 0 | 0
N#Cc1c(-c2ccccc2)cc(-c2cc(Br)ccc2O)[nH]c1=O (10 µM) as listed: 0 | 0 | 0 | 0 | 0 | 0 | 0 | 0 | 0 | 0 | 0 | 0 | 0 | 0 | 0 | 0 | 0 | 0 | 0 | 0
